Experimental findings from PubChem BioAssay AID1508600 (Functional Genomics Laboratory (NCATS/FGL), 2020) are described below.

Out of some 53,000 sequences screened, about 3,700 (7%) were called active.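 The calls were made as follows: active = gene knockdowns whose robust z-score for IL-1 alpha signal is at least 2 or at most -2, so actives lie on both sides; inactive = the rest.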 The list shows a part of the results.

This assay in a line: Components of the Cytosolic LPS Sensing Pathway: Gene Identification via Genome-wide siRNA Screen.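 Also: robust z of the log signal after scaling to non-targeting control siRNA wells of the plate.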 To be noted: RAW264.7 macrophages, IL-1a HTRF, actives lie on both sides, screened at 100 nM (by protocol), cells primed 5 h with Pam3CSK4 first. The method in brief:
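Knockdown: 100 nM siRNA, 48h, RAW264.7. Stimulation: Pam3CSK4 5 h, then LipidA via TransIT-TKO 24 h. Output: supernatant IL-1a HTRF, negative-control-normalized, log robust z-score; viability by CellTiter-Glo.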
On the technique in general: In TR-FRET formats the signal depends on donor and acceptor labels being close together.
As for “GAGAGAAUCCGUCAACGGATT against 4833420G17Rik”, the z-score is inactive: 0.667.
On to GGGUGUUCAUACAAGCCGUTT against Zp1, for which the z-score was inactive: -0.164.
To CCUGAUCUUGCACUCGAUGTT against Tbx6 belongs inactive: 0.422; to GGACACUUAAAGAUCCUGCTT against Armc7, inactive: -0.545; to GGUCACAGUUGUUUGAAGUTT against Bst2, inactive: -1.18.
The result for GCAGAGGUCUCUAAGCCAUTT against Lad1 reads inactive: -1.07; that for GGUUCAAAGUUCUAGCUAATT against Adss, inactive: -0.25.
To GCAUGUCAGACUGGUGCAATT against Rexo2 belongs inactive: 0.23; to CCUCACUCUAUAAUAAAGATT against Fsd1, inactive: -0.131.
On to CCUCAAUUUAGGCACUAAUTT against Urgcp, for which the z-score is inactive: -1.71.
The result for CCGAGUGAUGACCUACCGUTT against Ift43 reads inactive: -0.104; that for UCUAUCUCAUUACUAUUGUTT against Olfr190, inactive: 0.649.
To GGUUUUAAAGCACUUUGUATT against Jazf1 belongs inactive: 0.288.
In the case of GGAGAGUAUUCCAAGGUCCTT against Mrpl14, the z-score was inactive: 0.694.
To GGAUCUUGACUUUGAUAUGTT against Trpm4 belongs inactive: 0.0632.
To GCUGAAGAGAUAUGAGUUCTT against Dpp3 belongs inactive: 1.43.
To GGUAGACUUAUGUAGAUUCTT against Mrs2 belongs inactive: -0.933.
Take GGUCCUAGGUGCUAUAAUGTT against Matn4: the z-score was inactive: 1.12.
The result for GCGACAUUGCCCUUCUCUGTT against Prss45 reads inactive: -0.153; that for GGGUCCAUUCUGAGAACAATT against Cdk14, inactive: -0.432.
The result for GGAUUUAAUAGCCAUCGGUTT against Slc26a8 reads inactive: 0.266; that for CCCUUCUCUCGGAAUAAUATT against Gng12, inactive: 0.786; that for GGAAGAAAAUUCCAAUUUGTT against Rnf24, inactive: -0.134.
Turning to GCGUGUACUAAGUUCUUUGTT against Olfr549, the z-score is inactive: 0.972.
For GGCUGGAUUCUUGAACCUGTT against Zfp128, the z-score is inactive: -0.299.
To CCACACCAUAACAACAUUCTT against Olfr800 belongs active: -2.05.
The result for GUCUAUACACCAAAGAUCUTT against Olfr1014 reads inactive: 1.21; that for GGAGACAGUAAUAGCUCAUTT against Trp53bp1, inactive: -0.527.
The result for GGCAUUUAGUGACAACCCATT against Cxcl13 reads inactive: -1.13; that for GCUAUACUUUUGGGUUAUCTT against Mynn, inactive: 0.933; that for GGAUACCAGACCUCAAGUGTT against P2rx1, inactive: -0.45.
As for GGAAGCAUUGAAGAUAAGATT against Topbp1, the z-score is inactive: -0.273.
The result for GGGACUGAACUCCUGUUGGTT against Tspan10 reads inactive: -0.262.
With CCGAUUCCUUAGUCAUCGUTT against Pdgfra, the z-score was inactive: -0.787.
To GGUUCAUAGUCUGUUAUGATT against Clpb belongs inactive: -1.34; to GGACAUUUUCCGUAGAUUUTT against Rbm25, inactive: -0.724; to GCGCAACAUCUAUAAACGGTT against Mtmr4, inactive: 0.55.
Consider CCUCCUUAGACUCAAAUCCTT against Nfe2l2, for which the z-score is inactive: 1.38.
The result for CGUCUGUCCUAAUGAACCUTT against Pramel31 reads inactive: 0.15; that for GACGCAAGCAGCAUUUUAUTT against R3hdm4, inactive: -0.207; that for CCUGCACAGGAUAAUUAUGTT against Zfp426, inactive: 0.848.
To GGGUAAUUGUCUCUAGUAATT against Adam24 belongs inactive: -0.121; to GGAGAAACGGUACAUCUGUTT against Gstm5, inactive: -0.956; to GGAAGAAGAACUGCACCUATT against Tcea2, inactive: -1.08.
To GGAAAUAUUGUCAUCAUGGTT against Olfr1302 belongs inactive: -0.483; to GCGGCAGUGAUGAUAAGAATT against Acbd5, inactive: -0.825; to GGAUUUAUACUGAAUUGUCTT against Rpl39, inactive: 0.273.
On to GGAGCGAGAAGGUAAAGUCTT against Pibf1, for which the z-score was inactive: 1.05.
For GCUGUUACAGACCUGUUUCTT against Hspbp1, the z-score was inactive: 0.482.
To CGCGGUGGAGCUUCGAGAATT against Nrtn belongs inactive: 0.374.
Consider GUCACGAGAUUCAAGAUGUTT against Pate4, for which the z-score is inactive: 0.0789.
The result for CCUCGAAUUACGUAUGUUUTT against Fyn reads inactive: 1.12.
On to GCUAACAUUGUAAAUGCACTT against Dmrta1, for which the z-score was inactive: 0.467.
The result for GCACGACACUCUGUGCAUCTT against Kyat3 reads inactive: 0.6; that for GGCCUAGCAAGGGAUUUUATT against Cep85, active: -2.02.
To GGAGUUUAUGAGGAACUCGTT against Zwint belongs inactive: -0.0598; to CGAGGUCGAUGGAUAAAGGTT against Scnm1, inactive: -0.103.
For the sequence GGAGUUUGUUAACAGAGUATT against Pcyt1b, the z-score is inactive: -0.634.
The result for GCUGGCAGUUUGUAAGUAGTT against Faxc reads inactive: -0.653; that for GGACAGUUAGAUGGAUUGUTT against Msc, inactive: -1.66; that for GGCUACAGAAGGUGUUCAGTT against Klra22, inactive: 0.71.
Turning to CCAUUAACGUAAAUUCUGUTT against Ankrd13c, the z-score is inactive: -0.971.
To GGCCAAAAAAACAUACAAGTT against Zbtb21 belongs active: 4.91.
Take GGAGCUUCAGGUGAAGCGATT against Fam136a: the z-score was inactive: -1.
To GGAGAAAGUGUAGUGUUUATT against Siglecf belongs inactive: 0.76; to CCAGUUGAAAUAUUGAGCATT against Mbnl3, inactive: -0.16; to GGAAAAUCCCUCUUUGGCUTT against Sez6l2, inactive: -0.566.
As for GGUUUGUAUUGUAACUUUGTT against Abi1, the z-score is inactive: 0.414.
For the sequence GGCAUGGUGGGACAUUUCUTT against Pla1a, the z-score is inactive: -0.248.
On to GCAUUGAAGUCACCUCCACTT against Clcn2, for which the z-score was inactive: 0.161.
To GGUACGAAGUCAAAGUGAATT against Dnmt3l belongs inactive: 0.0494; to GCCAUUUCCUACAAUGCUUTT against Olfr1443, inactive: -1.73; to CCUAGACGUGACUUAAUAUTT against Rabggtb, active: 2.09.
To GCAUGAUGCAUACAAAGGCTT against Etfa belongs inactive: -0.829; to GGAGUUUUCAGCAACAAAUTT against Fgf5, inactive: -0.829; to GGAAAAGCAACACAUCUAUTT against Chst7, inactive: 0.268.
The result for GGCUGAAACUAAGAACUCATT against Nelfe reads inactive: -0.86; that for CCGAAAGGCUGGUACAUUCTT against Kin, inactive: -0.494; that for CGGUACAAGCUAGACCUCATT against Mettl26, inactive: 0.493.
On to GGACUUAGUACCUGAUAACTT against Rtraf, for which the z-score was inactive: 0.838.
To CCAGAGUACAGUGUAGUCATT against Hspb6 belongs inactive: 0.508; to GGUGACAUUGUAAUAACCATT against Sult1b1, inactive: -1.1; to GUCCAGAGUGACCACAUUUTT against Pemt, inactive: -0.471.
The result for CCCUAAACCUCUUUCAACATT against Nbeal1 reads inactive: 0.534; that for GGUCGACUGAAGGCCUUUUTT against Olfr1339, inactive: -1.21.
CGGGCUGAAUGUGUUUGUGTT against Slc10a4: the z-score is active: 2.62.
With GGAGUUUCUCUUAGGGAAATT against Ubald2, the z-score was inactive: 1.58.
For the sequence GGACAUUGUGCUAUUUUAATT against Mepe, the z-score is inactive: -0.645.
The result for GCAGACGACAAGUUCUACATT against Tbcb reads inactive: -0.666; that for GGUCAAAGAGUUCUGUGAATT against Ppp2r1a, inactive: -0.79.
To AAGGAAGUCUGUCCAAGGUTT against Olfr192 belongs inactive: -0.284.
The result for GCUUUUCAGGGCAGGUUACTT against Tmem150c reads inactive: 1.4; that for GGUUUGCUAGCUGACAACCTT against Dpep1, inactive: -1.4.
GGCCAACCUGUUCAUCAGCTT against Bdkrb1: the z-score is inactive: -0.0817.
The result for GGACAAGAAAAAGUCCAGATT against Dhx38 reads inactive: -1.17; that for GGAAGCUGUGCUCUCCAUGTT against Gm4814, inactive: 0.644; that for GUGAGAAGUUGUGUAGAGCTT against Fmc1, inactive: 1.84.
As for “GGAGAAAGAGGAGAAGAAATT against 4931414P19Rik”, the z-score was inactive: -1.37.
To CGGACACUCGGAUCAUAUUTT against Mblac1 belongs inactive: 0.611; to GGAAGAAGAAAAGGAUUACTT against Erlec1, inactive: -0.0575; to GGACUGUUGAAUAAAACCUTT against Rnps1, active: -2.29.
To GGUCCGAGAACAUCAUCGATT against Gnl3 belongs inactive: 0.867; to GCCUUAGGACGAGAGAAUATT against Spertl, inactive: -1.9.
With CCAUUCUGUGCCUUAGUUUTT against Loxhd1, the z-score was inactive: -0.276.
Take CCUGUAGGGCUUUUUGAAATT against Mex3a: the z-score is inactive: 0.843.
GGACUUUGAGAAAGCAUUCTT against Pck1: the z-score is active: -2.03.
For the sequence GGCACCUACAUCCUUAUUGTT against Ptprn, the z-score was inactive: -0.16.
